{
  "sequences": {"note": "Chains of the proteins cited; added tags and fusions are not shown.", "UniProt Q61188, whole entry": "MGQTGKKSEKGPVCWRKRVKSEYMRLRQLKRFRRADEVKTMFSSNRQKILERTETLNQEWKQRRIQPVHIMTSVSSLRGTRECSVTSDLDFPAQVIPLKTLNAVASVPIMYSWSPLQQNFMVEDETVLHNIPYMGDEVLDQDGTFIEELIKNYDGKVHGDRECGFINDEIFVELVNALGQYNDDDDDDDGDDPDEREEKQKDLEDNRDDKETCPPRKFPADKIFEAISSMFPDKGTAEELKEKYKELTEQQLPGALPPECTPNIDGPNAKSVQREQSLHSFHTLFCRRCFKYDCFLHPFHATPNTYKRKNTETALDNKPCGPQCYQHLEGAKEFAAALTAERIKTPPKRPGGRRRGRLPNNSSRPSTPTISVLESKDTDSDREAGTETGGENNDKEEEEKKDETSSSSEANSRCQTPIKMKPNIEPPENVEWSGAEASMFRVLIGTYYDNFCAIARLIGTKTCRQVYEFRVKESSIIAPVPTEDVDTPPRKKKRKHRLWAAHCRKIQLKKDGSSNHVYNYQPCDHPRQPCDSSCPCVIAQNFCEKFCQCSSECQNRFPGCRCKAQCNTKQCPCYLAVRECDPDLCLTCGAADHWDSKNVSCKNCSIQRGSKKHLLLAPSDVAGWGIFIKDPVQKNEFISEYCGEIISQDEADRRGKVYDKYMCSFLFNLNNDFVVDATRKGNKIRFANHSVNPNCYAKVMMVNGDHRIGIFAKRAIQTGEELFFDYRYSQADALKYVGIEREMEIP"},
  "source": "ChEMBL document CHEMBL5674883",
  "about": "“The Heterochromatin Landscape in Migrating Cells and the Importance of H3K27me3 for Associated Transcriptome Alterations” (Cells, 2018)",
  "format_in_all_cases": "cell-based",
  "key": {"[1]": {"target": "T1, RNA polymerase II (Mus musculus) (UniProt P08775+Q8CFI7+P97760+A0A3Q4L2S8+Q80UW8+P61219+P62488+Q923G2+P60898+O08740+Q63871+P62876)", "assay": "Inhibition of RNA polymerase II in mouse B16-F1 migrating cells assessed as fold change in Htra3-RNA stability at 0.1 mM measured by ChIP-seq analysis relative to control cells"}, "[2]": {"target": "T1, RNA polymerase II (Mus musculus)", "assay": "Inhibition of RNA polymerase II in mouse B16-F1 migrating cells assessed as fold change in Mvb12a-RNA stability at 0.1 mM measured by ChIP-seq analysis relative to control cells"}, "[3]": {"target": "T1, RNA polymerase II (Mus musculus)", "assay": "Inhibition of RNA polymerase II in mouse B16-F1 migrating cells assessed as fold change in Vamp8-RNA stability at 0.1 mM measured by ChIP-seq analysis relative to control cells"}, "[4]": {"target": "T1, RNA polymerase II (Mus musculus)", "assay": "Inhibition of RNA polymerase II in mouse B16-F1 migrating cells assessed as fold change in Yipf3-RNA stability at 0.1 mM measured by ChIP-seq analysis relative to control cells"}, "[5]": {"target": "T1, RNA polymerase II (Mus musculus)", "assay": "Inhibition of RNA polymerase II in mouse B16-F1 migrating cells assessed as fold change in Fam50a-RNA stability at 0.1 mM measured by ChIP-seq analysis relative to control cells"}, "[6]": {"target": "T1, RNA polymerase II (Mus musculus)", "assay": "Inhibition of RNA polymerase II in mouse B16-F1 migrating cells assessed as fold change in Ppp1r11-RNA stability at 0.1 mM measured by ChIP-seq analysis relative to control cells"}, "[7]": {"target": "T1, RNA polymerase II (Mus musculus)", "assay": "Inhibition of RNA polymerase II in mouse B16-F1 migrating cells assessed as fold change in Mgll-RNA stability at 0.1 mM measured by ChIP-seq analysis relative to control cells"}, "[8]": {"target": "T1, RNA polymerase II (Mus musculus)", "assay": "Inhibition of RNA polymerase II in mouse B16-F1 migrating cells assessed as fold change in Tcf20-RNA stability at 0.1 mM measured by ChIP-seq analysis relative to control cells"}, "[9]": {"target": "T1, RNA polymerase II (Mus musculus)", "assay": "Inhibition of RNA polymerase II in mouse B16-F1 migrating cells assessed as fold change in Mzt1-RNA stability at 0.1 mM measured by ChIP-seq analysis relative to control cells"}, "[10]": {"target": "T1, RNA polymerase II (Mus musculus)", "assay": "Inhibition of RNA polymerase II in mouse B16-F1 migrating cells assessed as fold change in Ano3-RNA stability at 0.1 mM measured by ChIP-seq analysis relative to control cells"}, "[11]": {"target": "T1, RNA polymerase II (Mus musculus)", "assay": "Inhibition of RNA polymerase II in mouse B16-F1 migrating cells assessed as fold change in Fnip1-RNA stability at 0.1 mM measured by ChIP-seq analysis relative to control cells"}, "[12]": {"target": "T1, RNA polymerase II (Mus musculus)", "assay": "Inhibition of RNA polymerase II in mouse B16-F1 migrating cells assessed as fold change in Pgap1-RNA stability at 0.1 mM measured by ChIP-seq analysis relative to control cells"}, "[13]": {"target": "T1, RNA polymerase II (Mus musculus)", "assay": "Inhibition of RNA polymerase II in mouse B16-F1 migrating cells assessed as fold change in Itsn2-RNA stability at 0.1 mM measured by ChIP-seq analysis relative to control cells"}, "[14]": {"target": "T1, RNA polymerase II (Mus musculus)", "assay": "Inhibition of RNA polymerase II in mouse B16-F1 migrating cells assessed as fold change in Ptpn4-RNA stability at 0.1 mM measured by ChIP-seq analysis relative to control cells"}, "[15]": {"target": "T1, RNA polymerase II (Mus musculus)", "assay": "Inhibition of RNA polymerase II in mouse B16-F1 migrating cells assessed as fold change in Peli1-RNA stability at 0.1 mM measured by ChIP-seq analysis relative to control cells"}, "[16]": {"target": "T1, RNA polymerase II (Mus musculus)", "assay": "Inhibition of RNA polymerase II in mouse B16-F1 migrating cells assessed as fold change in Nup153-RNA stability at 0.1 mM measured by ChIP-seq analysis relative to control cells"}, "[17]": {"target": "T1, RNA polymerase II (Mus musculus)", "assay": "Inhibition of RNA polymerase II in mouse B16-F1 migrating cells assessed as fold change in Sept7-RNA stability at 0.1 mM measured by ChIP-seq analysis relative to control cells"}, "[18]": {"target": "T1, RNA polymerase II (Mus musculus)", "assay": "Inhibition of RNA polymerase II in mouse B16-F1 migrating cells assessed as fold change in Far1-RNA stability at 0.1 mM measured by ChIP-seq analysis relative to control cells"}, "[19]": {"target": "T1, RNA polymerase II (Mus musculus)", "assay": "Inhibition of RNA polymerase II in mouse B16-F1 migrating cells assessed as fold change in Hells-RNA stability at 0.1 mM measured by ChIP-seq analysis relative to control cells"}, "[20]": {"target": "Histone-lysine N-methyltransferase EZH2 (Mus musculus) (UniProt Q61188)", "assay": "Inhibition of EZH2 in mouse B16-F1 migrating cells assessed as fold change in H3K27me3-independent regulated Bcl3-mRNA expression at 3 uM measured by ChIP-seq analysis relative to control cells"}, "[21]": {"target": "Histone-lysine N-methyltransferase EZH2 (Mus musculus) (UniProt Q61188)", "assay": "Inhibition of EZH2 in mouse B16-F1 migrating cells assessed as fold change in H3K27me3-independent regulated Sod3-mRNA expression at 3 uM measured by ChIP-seq analysis relative to control cells"}, "[22]": {"target": "Histone-lysine N-methyltransferase EZH2 (Mus musculus) (UniProt Q61188)", "assay": "Inhibition of EZH2 in mouse B16-F1 migrating cells assessed as fold change in H3K27me3-independent regulated Gm10639-mRNA expression at 3 uM measured by ChIP-seq analysis relative to control cells"}, "[23]": {"target": "Histone-lysine N-methyltransferase EZH2 (Mus musculus) (UniProt Q61188)", "assay": "Inhibition of EZH2 in mouse B16-F1 migrating cells assessed as fold change in H3K27me3-buffered regulated Bin3-mRNA expression at 3 uM measured by ChIP-seq analysis relative to control cells"}, "[24]": {"target": "Histone-lysine N-methyltransferase EZH2 (Mus musculus) (UniProt Q61188)", "assay": "Inhibition of EZH2 in mouse B16-F1 migrating cells assessed as fold change in H3K27me3-buffered regulated H2-K1-mRNA expression at 3 uM measured by ChIP-seq analysis relative to control cells"}, "[25]": {"target": "Histone-lysine N-methyltransferase EZH2 (Mus musculus) (UniProt Q61188)", "assay": "Inhibition of EZH2 in mouse B16-F1 migrating cells assessed as fold change in H3K27me3-buffered regulated Gpc1-mRNA expression at 3 uM measured by ChIP-seq analysis relative to control cells"}, "[26]": {"target": "Histone-lysine N-methyltransferase EZH2 (Mus musculus) (UniProt Q61188)", "assay": "Inhibition of EZH2 in mouse B16-F1 migrating cells assessed as fold change in H3K27me3-buffered regulated Pink1-mRNA expression at 3 uM measured by ChIP-seq analysis relative to control cells"}, "[27]": {"target": "Histone-lysine N-methyltransferase EZH2 (Mus musculus) (UniProt Q61188)", "assay": "Inhibition of EZH2 in mouse B16-F1 migrating cells assessed as fold change in H3K27me3-buffered regulated Pola2-mRNA expression at 3 uM measured by ChIP-seq analysis relative to control cells"}, "[28]": {"target": "Histone-lysine N-methyltransferase EZH2 (Mus musculus) (UniProt Q61188)", "assay": "Inhibition of EZH2 in mouse B16-F1 migrating cells assessed as fold change in H3K27me3-buffered regulated Tbkbp1-mRNA expression at 3 uM measured by ChIP-seq analysis relative to control cells"}, "[29]": {"target": "Histone-lysine N-methyltransferase EZH2 (Mus musculus) (UniProt Q61188)", "assay": "Inhibition of EZH2 in mouse B16-F1 migrating cells assessed as fold change in H3K27me3-buffered regulated Ccdc74a-mRNA expression at 3 uM measured by ChIP-seq analysis relative to control cells"}, "[30]": {"target": "Histone-lysine N-methyltransferase EZH2 (Mus musculus) (UniProt Q61188)", "assay": "Inhibition of EZH2 in mouse B16-F1 migrating cells assessed as fold change in H3K27me3-buffered regulated Glcci1-mRNA expression at 3 uM measured by ChIP-seq analysis relative to control cells"}},
  "note": "This continues a long series; more values of the same kind are listed elsewhere.",
  "data": [
    {"smiles": "OC[C@H]1O[C@@H](n2cnc3cc(Cl)c(Cl)cc32)[C@H](O)[C@@H]1O", "values": [
      {"measurement": "log2FC", "setting": "[1]", "value": 0.82},
      {"measurement": "log2FC", "setting": "[2]", "value": 0.58},
      {"measurement": "log2FC", "setting": "[3]", "value": 0.54},
      {"measurement": "log2FC", "setting": "[4]", "value": 0.47},
      {"measurement": "log2FC", "setting": "[5]", "value": 0.45},
      {"measurement": "log2FC", "setting": "[6]", "value": 0.4},
      {"measurement": "log2FC", "setting": "[7]", "value": 0.38},
      {"measurement": "log2FC", "setting": "[8]", "value": -0.44},
      {"measurement": "log2FC", "setting": "[9]", "value": -0.49},
      {"measurement": "log2FC", "setting": "[10]", "value": -0.5},
      {"measurement": "log2FC", "setting": "[11]", "value": -0.51},
      {"measurement": "log2FC", "setting": "[12]", "value": -0.51},
      {"measurement": "log2FC", "setting": "[13]", "value": -0.54},
      {"measurement": "log2FC", "setting": "[14]", "value": -0.56},
      {"measurement": "log2FC", "setting": "[15]", "value": -0.67},
      {"measurement": "log2FC", "setting": "[16]", "value": -0.69},
      {"measurement": "log2FC", "setting": "[17]", "value": -0.69},
      {"measurement": "log2FC", "setting": "[18]", "value": -0.74},
      {"measurement": "log2FC", "setting": "[19]", "value": -1.03}
    ]},
    {"smiles": "CCCc1cc(C)[nH]c(=O)c1CNC(=O)c1cc(-c2ccnc(N3CCN(C)CC3)c2)cc2c1cnn2C(C)C", "values": [
      {"measurement": "log2FC", "setting": "[20]", "value": 0.93},
      {"measurement": "log2FC", "setting": "[21]", "value": 1.06},
      {"measurement": "log2FC", "setting": "[22]", "value": 0.72},
      {"measurement": "log2FC", "setting": "[23]", "value": 0.64},
      {"measurement": "log2FC", "setting": "[24]", "value": 0.45},
      {"measurement": "log2FC", "setting": "[25]", "value": 0.43},
      {"measurement": "log2FC", "setting": "[26]", "value": 0.38},
      {"measurement": "log2FC", "setting": "[27]", "value": -0.4},
      {"measurement": "log2FC", "setting": "[28]", "value": -0.43},
      {"measurement": "log2FC", "setting": "[29]", "value": -0.63},
      {"measurement": "log2FC", "setting": "[30]", "value": -0.79}
    ]}
  ]
}
